Measured values published in PMC9536578.
These are yes or no findings as the source states them, for the method shown. In cells and extracts the contact can be indirect. Some entries that bind do so weakly or less than the wild type. Sequences can lack the tags named with a protein.

How the values were obtained:
[1] = target: T1, GST::proCED-3 (C. elegans) (UniProt P42573); assay: pull-down; GST-tagged proteins held on Glutathione-Sepharose beads, incubated with 10 μl in vitro transcribed-translated ^35S-labeled protein for 90 minutes at 4°C in 30 mM Tris-HCl (pH 7.5), 0.5% Triton X-100, 100 mM NaCl, 2 mM MgCl2, 1 mM DTT, 0.5% BSA; autoradiography; only the target purified
T1 sequence: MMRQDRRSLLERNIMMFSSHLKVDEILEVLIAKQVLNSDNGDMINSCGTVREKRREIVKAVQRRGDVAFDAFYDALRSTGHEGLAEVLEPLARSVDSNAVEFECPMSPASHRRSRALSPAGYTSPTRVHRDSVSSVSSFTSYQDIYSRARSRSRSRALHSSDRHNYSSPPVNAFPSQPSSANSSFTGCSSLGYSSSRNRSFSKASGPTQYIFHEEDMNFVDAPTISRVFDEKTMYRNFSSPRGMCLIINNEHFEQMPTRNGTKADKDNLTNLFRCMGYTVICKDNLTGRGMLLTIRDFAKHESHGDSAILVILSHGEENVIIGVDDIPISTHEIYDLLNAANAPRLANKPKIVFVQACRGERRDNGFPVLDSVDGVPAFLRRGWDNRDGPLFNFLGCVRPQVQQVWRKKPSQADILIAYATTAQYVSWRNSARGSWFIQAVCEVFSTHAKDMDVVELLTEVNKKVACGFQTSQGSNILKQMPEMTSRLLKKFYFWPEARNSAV

[2] = target: T2, GST::proCED-3(C358S) (C. elegans) (UniProt P42573); assay: as above
T2 sequence: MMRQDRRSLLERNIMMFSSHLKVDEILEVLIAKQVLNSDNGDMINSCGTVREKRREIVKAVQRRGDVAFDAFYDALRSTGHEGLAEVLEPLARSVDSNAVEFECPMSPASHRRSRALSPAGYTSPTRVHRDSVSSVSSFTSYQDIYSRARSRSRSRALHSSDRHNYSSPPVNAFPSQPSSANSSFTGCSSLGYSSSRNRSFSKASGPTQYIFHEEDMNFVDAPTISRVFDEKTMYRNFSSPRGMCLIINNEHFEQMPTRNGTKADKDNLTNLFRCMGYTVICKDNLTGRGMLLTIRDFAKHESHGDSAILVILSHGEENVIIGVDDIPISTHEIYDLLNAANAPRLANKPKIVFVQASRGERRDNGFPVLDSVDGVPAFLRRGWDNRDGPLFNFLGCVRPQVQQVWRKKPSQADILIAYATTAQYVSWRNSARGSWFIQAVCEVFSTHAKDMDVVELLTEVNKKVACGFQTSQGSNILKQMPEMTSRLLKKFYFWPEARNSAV

binding [1]: binds
binding [2]: binds
B1: ^35S-S·TAG::ECT-2 (full-length ECT-2 protein) (protein, UniProt Q9U364 1-932)
chain: MDVSMLQSPQKRIKTIQKLAVSKKDVHDFKDIFEMLEEQKEKRNINIIQYDSLDDLSGDWSEYTFFCGNFDSDLFRTLTKHQETQALFIIGASVLKNKLLKNEDLMTLRAARPLYCELMKDVTMKLAAEVPNKRELVDLVHYMGGSVRKDTVSRTNVFIAAKVEAKVQSISLVGVPTMRADWVTECWKHRDDSYFDVMEPCFVDKHRLGVFEGLSLFFHGFKQTEIDDMLRSLENTGGKLAPSPTLATHVVYNPDNDEVETLAVSSNQVHVTKEWFWVSLHRGCCAIEDNFALPTGKLHRKPLESSSVSSPIGKSLRSQNSRSLSSMRDCSVEGPTSLNMTPDYIYSNDDVENSCKSPRQPSKRLRVCMEMVETEKNYLSLLKLVVKFKEALECEISHNEFMSRSDVAMMFGKLDPILELHERIFARLTVMSNEANTLLTVVNGKKNDDKNLDFAQVWIDAKEEMKKAYPQYINSYDTIKRLFDKQDRENSKFHTFCKAKESNPEFHRLKLTDLMVKPVQRLPSVILLLKEMAKKSDSKLKNNAEEAAKAIDEVLKTANKTREKNDNFISHLSKFTDIENVPPILVAANRMFIRELVVSPIASTSPGLQQFAKMKLFLFHDVLIITKIRSEKNTMQRLARHASFASLHSRQRRPYRYIDQIQLNTMRSAFRIRAPDEIAKCLELQQQNGSTKPNVFVWCLIHRDEQGGDIDTVFESNDDEEVRDFLDDIHVKILSDCGRFFYSSDPSDMNEINDAMVSDMTTRYFRNLCGAKPQYGHGSQMNITVSERSTQNEWSHNESFMPPPQSQSRMRRAFSNAQLTLATTLGFGRNQSRNNLGQINENTTFLQSPRVSCDPAALANMTSVGGLPGCQSESESTPKRGIRSRLTSTTFLGGRHNILGRNTSMRRQATGFAHSEKELPRSKTSSYRVTDI
modifications: ^35S-methionine-labeled
